{"source": "patent US20020115649A1", "about": "“Use of texaphyrins in macrophage-mediated disease” (Pharmacyclics, Inc., priority 1998, published 2002)", "tested_on": "macrophage of atheromatous plaque", "assay": "Confocal fluorescence microscopy of plaque ladened aortas after texaphyrin injection", "assay_type": "in vivo, hypercholesterolemic NZW rabbits", "settings": "10 μmol/kg over 2 consecutive days, sacrificed 24 hours after last injection, 488 nm excitation, 660 nm cut-off filter"}
{"smiles": "CC(=O)[O-].CC(=O)[O-].CCc1c(CC)c2cc3nc(cnc4cc(OCCOCCOCCOC)c(OCCOCCOCCOC)cc4ncc4nc(cc1[n-]2)C(CCCO)=C4C)C(C)=C3CCCO.O.[Lu+3]", "note": "[LuT2BET]", "values": [{"measurement": "intracellular biodistribution pattern (fluorescence) in atheromatous plaque-ladened aorta", "setting": "listed as PCI-0123", "result": "consistent with that expected for macrophage distribution"}, {"measurement": "intracellular biodistribution pattern (fluorescence) in atheromatous plaque-ladened aorta", "setting": "listed as lutetium texaphyrin", "result": "punctate irregular fluorescent spots were distributed throughout the atheroma"}]}
